# Assay results taken from PubChem BioAssay AID540256 (National Center for Advancing Translational Sciences (NCATS), 2011).
# Hit rate of the full screen: of about 300,000 compounds, about 3,700 (1.2%) were called active. This list was built around the results that the source calls inconclusive (neither active nor inactive); the mix of calls is not that of the screen. Calls come from the whole dose curve; tested in HEK293 cells. A potency beside an inconclusive call is a rough fit, not a confirmed value.
# Assay: qHTS for Inhibitors of binding or entry into cells for Lassa Virus; note: nearly all actives have a fitted effect of over 50% in size
# Settings: Lassa virus pseudotype entry inhibition, cell reporter; activity change, negative = inhibition: at 37.9 µM (top of the series) unless noted
# % is set by controls: 0 for no effect and ±100 for the full control effect; potency is the fitted concentration of half-maximal effect.
Compound,Potency,"activity change, negative = inhibition"
O=C(NNC(=S)Nc1ccccc1Cl)c1ccccc1Br,"inconclusive: 4.47 µM [activator, single point]",
Cc1nc2ccccc2n1CCc1nc2c3ccccc3nc(SCc3cccc(F)c3)n2n1,,inactive: 10.4% [at 46.1 µM]
CN(c1ccccc1)S(=O)(=O)c1ccc(Cl)c(C(=O)Nc2nc3ccccc3[nH]2)c1,"inconclusive: 29.1 µM [inhibitor, single point]",
COc1ccc(CNC(=O)COc2ccc(S(=O)(=O)N3CCCCC3)cc2Cl)cc1,active: 12.6 µM,
COCCn1nnnc1C(C(C)C)N1CCOCC1 (centres undefined),,inactive: -15%
CCOc1ccc(OCc2ccc(C(=O)NCC3CCCO3)o2)cc1 (centres undefined),,inactive: -1.8%
O=C(CCC(=O)c1ccc(F)cc1)OC1CCOC1=O (centres undefined),,inactive: -17.3%
O=C(COC(=O)c1cc(-c2cccs2)nc2ccccc12)c1ccc(Br)cc1,,inactive: 29% [at 46.1 µM]
S=C(NCC1CCCO1)Nc1ccc(Cl)cc1Cl (centres undefined),"inconclusive: 35.5 µM [inhibitor, single point]",
Cc1ccc2nc(Cl)c(/C=C/C(=O)c3ccco3)cc2c1,"inconclusive: 4.47 µM [activator, single point]",
Cn1c(SSc2ccc(-c3cccnc3)n2C)ccc1-c1cccnc1,"inconclusive: 22.4 µM [inhibitor, single point]",
COc1cccc(CC(NC(C)=O)C(=O)NC2CCN(c3c4c(nc5ncnn35)CCC4)CC2)c1 (centres undefined),"inconclusive: 6.31 µM [inhibitor, single point]",
O=C(Nc1cc(Sc2ccccn2)cc([N+](=O)[O-])c1)c1ccc([N+](=O)[O-])cc1,"inconclusive: 22.4 µM [inhibitor, single point]",
CCN(CC(=O)Nc1ccc2c(c1)OCCO2)Cc1cc(=O)oc2cc(C)c(C)cc12,"inconclusive: 4.11 µM [inhibitor, partial curve, poor fit]",
COc1cc(-c2nc(CN3CCN(C(=O)c4ccco4)CC3)c(C)o2)ccc1F,"inconclusive: 22.4 µM [inhibitor, partial curve, poor fit]",
Cc1ccc(CNC(=O)C(=O)NCC2OCCN2S(=O)(=O)c2ccc3c(c2)OCCO3)cc1 (centres undefined),,inactive: -28.4%
Cc1cccc(C(=O)Nc2cccc(-c3cnc4ccccc4n3)c2)c1,"inconclusive: 4.11 µM [inhibitor, single point]",
COc1ccc(N=C(N)SCc2ccccn2)cc1,"inconclusive: 3.16 µM [inhibitor, single point]",
COc1cccc(CN(C)C(=S)Nc2cccc(C)c2)c1,"inconclusive: 35.5 µM [inhibitor, single point]",
COc1ccc(C(=O)NCCC2=CCCCC2)cc1[N+](=O)[O-],"inconclusive: 0.891 µM [inhibitor, single point]",
COc1ccc(NC(=O)CSc2c3c(nc4cc(Cl)ccc24)CCCC3)cc1OC,"inconclusive: 10 µM [inhibitor, partial curve, poor fit]",
Cc1ccc2cccc(SCC(=O)Nc3ccc(F)cc3)c2n1,"inconclusive: 10 µM [inhibitor, single point]",

# At a glance, two of the compounds above.
Compound,Potency,"activity change, negative = inhibition"
COc1ccc(N=C(N)SCc2ccccn2)cc1,"inconclusive: 3.16 µM [inhibitor, single point]",
COc1cccc(CN(C)C(=S)Nc2cccc(C)c2)c1,"inconclusive: 35.5 µM [inhibitor, single point]",

# Going on with the list:

Compound,Potency,"activity change, negative = inhibition"
Cc1ccccc1NC(=O)COC(=O)c1cc[n+]([O-])cc1,,inactive: 2.02%
S=C(NCCc1ccccc1)N1CCn2cccc2C1c1ccncc1 (centres undefined),"inconclusive: 25.1 µM [inhibitor, partial curve, poor fit]",
O=C(Nc1ccc(C(=O)c2ccccc2)cc1)c1ccccc1,"inconclusive: 35.5 µM [inhibitor, single point]",
Cn1c(=O)oc2cc(S(=O)(=O)N3CCC(C(=O)NCc4ccccc4Cl)CC3)ccc21,"inconclusive: 5.01 µM [activator, partial curve]",
OC(CNCC1(N2CCCCC2)CCCCC1)COc1ccc(Cl)cc1Cl (centres undefined),"inconclusive: 4.47 µM [inhibitor, partial curve]",
CCOc1ccc(NC(=O)CC2C(=O)N(c3ccccc3)C(=O)N2CCc2ccc(OC)cc2)cc1 (centres undefined),"inconclusive: 8.91 µM [inhibitor, partial curve, poor fit]",
Cc1ccc(C)c(OCc2nc3ccc(S(=O)(=O)Nc4c(C)n(C)n(-c5ccccc5)c4=O)cc3[nH]2)c1,,inactive: -17.7% [at 46.1 µM]
CCOC(=O)c1sc2nc(N3CCOCC3)c3c(c2c1N)CCN(Cc1ccccc1)C3,active: 16.4 µM,
COc1ccc(Cn2c(C(=O)O)c(CNCc3cccc(OC)c3)c3ccc(C)cc32)cc1,"inconclusive: 14.1 µM [inhibitor, partial curve, poor fit]",
CC1=C/C(=N\OS(=O)(=O)c2ccccc2)C(C)=CC1=O,"inconclusive: 22.4 µM [inhibitor, partial curve, poor fit]",
CC(C)(C)n1cnc2cc(NC(=O)c3cccs3)ccc21,"inconclusive: 17.8 µM [inhibitor, single point]",
Cc1cc(S(=O)(=O)N2CCCCC2)ccc1OCC(=O)N1CCCC1,,inactive: 9.23%
CCOc1ccccc1Oc1cn[nH]c1-c1ccc(OC)cc1O,"inconclusive: 10 µM [inhibitor, partial curve]",
CC(C)(C)C(=O)c1cn(CC(=O)NCc2ccc3c(c2)OCO3)c2ccccc12,"inconclusive: 11.2 µM [activator, partial curve]",
Cc1cccc(NC(=O)c2ccc(S(=O)(=O)N(C)c3ccccc3)cc2)n1,"inconclusive: 35.5 µM [inhibitor, single point]",
CCCCCN1CSC(=S)N(Cc2ccccc2)C1,,inactive: -4.36%
COc1cc(SC)ccc1C(=O)NC(C)C,,inactive: -11.7%
COc1cccc(/C=N/NC(=O)c2cccs2)c1,"inconclusive: 11.2 µM [inhibitor, single point]",
CCOc1cc(/C=C(\C#N)c2[nH]nc(N)c2C#N)ccc1O,"inconclusive: 11.2 µM [inhibitor, single point]",
COc1ccc(NC(=O)Cn2c(=O)n(CCCC(=O)NCc3ccccc3OC)c(=O)c3ccccc32)cc1Cl,,inactive: 0.487% [at 46.1 µM]
O=C(Nc1ccccn1)c1ccc(C(=O)c2ccccc2)cc1,"inconclusive: 35.5 µM [inhibitor, single point]",
O=C1O/C(=C/Br)CCC1c1cccc2ccccc12 (centres undefined),active: 20.6 µM,
